Measurements taken from patent publication US11311542B2, “Inhibitors of cyclin dependent kinase 7 (CDK7)” (Syros Pharmaceuticals, Inc., priority 2018, dated 2022).

By UniProt entry, the sequences of proteins in these tests, tags left out. Residues count along the entry.
UniProt P50750, whole entry: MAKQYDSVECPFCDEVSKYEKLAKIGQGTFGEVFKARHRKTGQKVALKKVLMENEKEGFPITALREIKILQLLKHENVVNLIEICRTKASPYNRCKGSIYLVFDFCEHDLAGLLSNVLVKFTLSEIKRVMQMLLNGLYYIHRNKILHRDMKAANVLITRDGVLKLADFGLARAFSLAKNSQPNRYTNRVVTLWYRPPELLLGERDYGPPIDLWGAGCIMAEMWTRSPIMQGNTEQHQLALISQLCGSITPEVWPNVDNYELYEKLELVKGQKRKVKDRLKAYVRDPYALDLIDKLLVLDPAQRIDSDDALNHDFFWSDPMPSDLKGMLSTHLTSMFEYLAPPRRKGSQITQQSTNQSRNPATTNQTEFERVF
UniProt Q9NYV4, 686-1082 limits assumed: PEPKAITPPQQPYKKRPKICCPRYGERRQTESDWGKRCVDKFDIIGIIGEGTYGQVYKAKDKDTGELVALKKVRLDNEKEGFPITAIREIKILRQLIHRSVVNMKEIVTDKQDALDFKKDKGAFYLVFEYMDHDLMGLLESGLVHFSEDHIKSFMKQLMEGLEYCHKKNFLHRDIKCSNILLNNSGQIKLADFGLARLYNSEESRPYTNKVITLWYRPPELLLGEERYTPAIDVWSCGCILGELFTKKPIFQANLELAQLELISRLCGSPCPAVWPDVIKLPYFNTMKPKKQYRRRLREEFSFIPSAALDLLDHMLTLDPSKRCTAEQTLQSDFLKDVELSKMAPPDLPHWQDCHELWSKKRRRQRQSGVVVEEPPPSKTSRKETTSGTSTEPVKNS
UniProt P50613, whole entry: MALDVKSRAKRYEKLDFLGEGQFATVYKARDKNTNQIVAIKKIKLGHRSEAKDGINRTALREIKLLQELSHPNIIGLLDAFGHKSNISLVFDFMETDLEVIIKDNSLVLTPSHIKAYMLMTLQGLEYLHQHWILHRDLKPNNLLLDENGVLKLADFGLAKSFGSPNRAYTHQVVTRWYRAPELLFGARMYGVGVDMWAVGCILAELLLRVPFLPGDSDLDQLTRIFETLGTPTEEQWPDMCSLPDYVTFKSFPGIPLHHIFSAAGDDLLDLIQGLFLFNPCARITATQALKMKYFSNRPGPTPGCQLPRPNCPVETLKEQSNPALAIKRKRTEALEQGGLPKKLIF
UniProt P51948, whole entry partner: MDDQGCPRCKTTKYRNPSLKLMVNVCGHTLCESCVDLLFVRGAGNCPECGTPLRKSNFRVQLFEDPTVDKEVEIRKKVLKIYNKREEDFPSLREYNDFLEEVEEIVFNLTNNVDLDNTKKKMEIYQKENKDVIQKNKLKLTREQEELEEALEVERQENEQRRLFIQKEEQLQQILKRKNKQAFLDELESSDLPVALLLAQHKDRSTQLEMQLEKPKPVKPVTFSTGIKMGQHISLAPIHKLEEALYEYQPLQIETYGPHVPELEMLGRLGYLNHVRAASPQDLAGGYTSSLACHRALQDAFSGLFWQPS
UniProt O60563, whole entry partner: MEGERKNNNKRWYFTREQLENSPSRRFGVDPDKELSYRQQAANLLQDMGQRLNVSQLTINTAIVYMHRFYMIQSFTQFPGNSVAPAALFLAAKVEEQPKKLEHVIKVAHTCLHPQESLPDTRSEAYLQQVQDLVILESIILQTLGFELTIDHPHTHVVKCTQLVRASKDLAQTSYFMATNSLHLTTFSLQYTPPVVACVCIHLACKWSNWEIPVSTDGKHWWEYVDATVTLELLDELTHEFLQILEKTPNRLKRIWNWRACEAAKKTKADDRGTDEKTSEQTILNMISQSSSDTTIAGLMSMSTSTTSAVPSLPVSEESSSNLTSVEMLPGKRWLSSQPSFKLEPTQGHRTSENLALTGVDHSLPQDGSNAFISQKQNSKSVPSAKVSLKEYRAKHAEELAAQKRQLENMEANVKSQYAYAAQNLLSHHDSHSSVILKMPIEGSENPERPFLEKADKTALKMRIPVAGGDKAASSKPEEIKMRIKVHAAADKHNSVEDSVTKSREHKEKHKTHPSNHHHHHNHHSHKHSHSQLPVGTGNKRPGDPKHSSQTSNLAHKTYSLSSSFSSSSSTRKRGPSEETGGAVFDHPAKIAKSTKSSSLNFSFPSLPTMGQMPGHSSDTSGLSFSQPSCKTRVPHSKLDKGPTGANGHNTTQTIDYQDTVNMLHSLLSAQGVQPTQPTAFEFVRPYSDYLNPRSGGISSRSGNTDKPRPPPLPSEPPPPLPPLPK
UniProt O75909, whole entry partner: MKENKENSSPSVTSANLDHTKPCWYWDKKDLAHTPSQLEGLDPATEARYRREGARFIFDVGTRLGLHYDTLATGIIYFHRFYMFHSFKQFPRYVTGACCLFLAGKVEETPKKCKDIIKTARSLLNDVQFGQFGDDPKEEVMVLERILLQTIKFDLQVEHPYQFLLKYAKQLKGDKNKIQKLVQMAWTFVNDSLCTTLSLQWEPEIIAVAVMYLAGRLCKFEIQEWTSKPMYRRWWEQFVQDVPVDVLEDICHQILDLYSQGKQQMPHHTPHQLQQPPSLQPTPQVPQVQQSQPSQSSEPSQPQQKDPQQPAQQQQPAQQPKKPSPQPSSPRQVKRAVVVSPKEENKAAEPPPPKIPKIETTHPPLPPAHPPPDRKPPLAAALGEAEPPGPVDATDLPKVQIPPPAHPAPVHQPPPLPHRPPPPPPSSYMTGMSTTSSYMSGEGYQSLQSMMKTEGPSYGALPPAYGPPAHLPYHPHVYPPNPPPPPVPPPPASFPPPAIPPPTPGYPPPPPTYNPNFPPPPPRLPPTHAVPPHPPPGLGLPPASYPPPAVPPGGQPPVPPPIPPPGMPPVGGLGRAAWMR
UniProt P51946, whole entry partner: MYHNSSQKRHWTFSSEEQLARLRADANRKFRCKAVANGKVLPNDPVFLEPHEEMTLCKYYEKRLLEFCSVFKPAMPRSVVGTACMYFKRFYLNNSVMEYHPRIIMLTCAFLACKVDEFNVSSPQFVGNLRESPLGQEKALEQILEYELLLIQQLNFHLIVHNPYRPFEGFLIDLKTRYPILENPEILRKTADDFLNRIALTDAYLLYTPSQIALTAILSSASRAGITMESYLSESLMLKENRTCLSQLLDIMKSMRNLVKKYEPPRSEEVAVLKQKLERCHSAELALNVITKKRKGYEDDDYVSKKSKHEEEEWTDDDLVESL

What was measured:
[1] = biological target: CDK9/Cyclin T1 complex (Homo sapiens, UniProt P50750); assay: CDK9 kinase inhibition assay (Caliper/LabChip EZ Reader); conditions: read-out: CDK9 IC50; CDK9/Cyclin T1 8 nM, ATP 2 mM, 15 min at 27° C.
[2] = system: COV318 cells; assay: Inhibition of cell proliferation (CyQUANT Direct), COV318; conditions: read-out: COV318 cell proliferation inhibition IC50, COV318, 72-hour
Experimental: (§1) HCC70 and MB453 cells are cell lines derived from human triple negative breast cancer COV318 and COV504 cells are cell lines derived from human ovarian cancer. Representative compounds of the invention were tested at different concentrations (from 4 μM to 126.4 pM; 0.5 log serial dilutions) for their ability to inhibit the proliferation of each of these cell lines. Known CDK inhibitors dinaciclib or N-((1S,3R)-3-((5-chloro-4-(1H-indol-3-yl) pyrimidin-2-yl)amino)cyclohexyl)-5-((E)-4-(dimethylamino)but-2-enamido)picolinamide and triptolide were used as positive controls. Cells were seeded at approximately 2,000 cells/well and grown in ATCC-formulated RPMI-1640 Medium (ATCC 30-2001)+10% FBS. The cells were cultured at 37° C. in a humidified chamber in the presence of 5% CO2. Proliferation assays were conducted over a 72-hour time period. CyQUANT® Direct Cell Proliferation Assay (Life Technologies, Chicago, Ill. USA) was used to assess the anti-proliferative effects of the compounds following manufacturer's directions and utilizing the reagents supplied with the CyQUANT® Direct Cell kit. […]

[3] = system: HCC70 cells; assay: Inhibition of cell proliferation (CyQUANT Direct), HCC70; conditions: read-out: HCC70 cell proliferation inhibition IC50, HCC70, 72-hour
Experimental: as §1

[4] = biological target: CDK12 (aa686-1082)/Cyclin K complex (Homo sapiens, UniProt Q9NYV4); assay: CDK12 kinase inhibition assay (Caliper/LabChip EZ Reader); conditions: read-out: CDK12 IC50; CDK12 (aa686-1082)/Cyclin K 50 nM, ATP 2 mM, 3 hr at 27° C.
[5] = biological target: CDK2/Cyclin E1 complex (Homo sapiens, UniProt P24941); assay: CDK2 kinase inhibition assay (Caliper/LabChip EZ Reader); conditions: read-out: CDK2 IC50; CDK2/Cyclin E1 0.5 nM, ATP 2 mM, 35 min at 27° C.
[6] = system: COV504 cells; assay: Inhibition of cell proliferation (CyQUANT Direct), COV504; conditions: read-out: COV504 cell proliferation inhibition IC50, COV504, 72-hour
Experimental: as §1

[7] = system: MB453 cells; assay: Inhibition of cell proliferation (CyQUANT Direct), MB453; conditions: read-out: MB453 cell proliferation inhibition IC50, MB453, 72-hour
Experimental: as §1

[8] = biological target: CDK7/Cyclin H/MAT1 complex (Homo sapiens, UniProt P50613); assay: CDK7 kinase inhibition assay (Caliper/LabChip EZ Reader); conditions: read-out: CDK7 IC50; CDK7/Cyclin H/MAT1 6 nM, ATP 2 mM, 35 min at 27° C.

**Q.** Which results are given for `Cc1noc(C)c1-c1ccc2c(-c3nc(N[C@H]4CC[C@H](C)NC4)ncc3C(F)(F)F)n[nH]c2n1`?
**A.** IC50 [1]: > 500 nM; IC50 [2]: > 1000 nM; IC50 [3]: > 1000 nM; IC50 [4]: > 500 nM; IC50 [5]: > 500 nM; IC50 [6]: 500 to 1000 nM; IC50 [7]: 100 to 500 nM; IC50 [8]: < 30 nM

The structures given here were assigned with low confidence; some may be wrong.
